This is one part of the list.
Experiments:
Assay in all cases: log2 fold change, soluble protein after heating vs DMSO (PISA); higher = thermal stabilisation; K562 lysate, 10 uM; active = over 0.2 and 3.5 SD of the protein, either way, in both replicates (recomputed)
[1] = compound: CCCS(=O)(=O)Nc1ccc(F)c(C(=O)c2c[nH]c3ncc(Cl)cc23)c1F
Method in brief: (§1)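 Soluble protein was defined as the supernatant remaining after 21,000xg for 90 min, following pooling of heated aliquots and adjustment to 0.5% NP-40 at 4°C. Before that, crude K562 extract at 1 mg/mL protein in PBS pH 7.4 with 1 mM MgCl2 was treated with 10 μM compound for 30 min and heated for 3 min across 48°C-58°C. Quantification used TMTpro 16plex LC-MS/MS with channel sums equalised, and values are log-two fold changes in thermal stability relative to solvent controls from duplicates.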

By UniProt entry, the sequences of proteins in these tests, tags left out. Where a name states a change or a piece, a line headed by the entry shows the natural chain unless it says otherwise.
UniProt Q9NX70: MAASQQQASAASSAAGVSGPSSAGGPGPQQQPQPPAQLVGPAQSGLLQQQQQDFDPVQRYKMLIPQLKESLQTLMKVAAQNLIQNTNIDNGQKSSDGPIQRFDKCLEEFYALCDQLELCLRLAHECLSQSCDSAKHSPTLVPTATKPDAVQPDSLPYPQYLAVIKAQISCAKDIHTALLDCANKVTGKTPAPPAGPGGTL
UniProt P50579: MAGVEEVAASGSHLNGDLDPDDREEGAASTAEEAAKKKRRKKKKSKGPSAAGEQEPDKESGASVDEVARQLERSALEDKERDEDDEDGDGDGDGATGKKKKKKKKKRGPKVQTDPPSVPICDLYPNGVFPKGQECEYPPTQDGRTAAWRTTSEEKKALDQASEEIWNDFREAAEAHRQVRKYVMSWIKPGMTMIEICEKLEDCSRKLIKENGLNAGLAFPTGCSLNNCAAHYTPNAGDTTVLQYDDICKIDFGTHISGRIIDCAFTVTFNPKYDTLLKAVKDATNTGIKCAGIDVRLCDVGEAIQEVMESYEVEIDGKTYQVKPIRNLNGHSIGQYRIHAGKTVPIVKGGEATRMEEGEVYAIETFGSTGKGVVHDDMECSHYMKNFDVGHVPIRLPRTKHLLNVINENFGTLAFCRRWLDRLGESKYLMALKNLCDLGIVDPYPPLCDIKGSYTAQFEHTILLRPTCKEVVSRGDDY
UniProt Q8NI22: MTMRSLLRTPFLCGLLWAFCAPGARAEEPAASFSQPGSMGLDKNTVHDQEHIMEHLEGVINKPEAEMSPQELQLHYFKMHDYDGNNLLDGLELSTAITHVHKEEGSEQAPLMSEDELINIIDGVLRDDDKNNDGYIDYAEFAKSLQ
UniProt Q6UX53: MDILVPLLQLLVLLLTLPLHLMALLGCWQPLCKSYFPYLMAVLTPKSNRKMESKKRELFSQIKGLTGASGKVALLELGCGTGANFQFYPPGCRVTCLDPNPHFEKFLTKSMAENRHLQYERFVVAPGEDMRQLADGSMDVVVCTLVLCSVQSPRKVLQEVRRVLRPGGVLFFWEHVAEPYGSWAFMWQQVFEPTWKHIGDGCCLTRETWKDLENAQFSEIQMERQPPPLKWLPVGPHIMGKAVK
UniProt P42679: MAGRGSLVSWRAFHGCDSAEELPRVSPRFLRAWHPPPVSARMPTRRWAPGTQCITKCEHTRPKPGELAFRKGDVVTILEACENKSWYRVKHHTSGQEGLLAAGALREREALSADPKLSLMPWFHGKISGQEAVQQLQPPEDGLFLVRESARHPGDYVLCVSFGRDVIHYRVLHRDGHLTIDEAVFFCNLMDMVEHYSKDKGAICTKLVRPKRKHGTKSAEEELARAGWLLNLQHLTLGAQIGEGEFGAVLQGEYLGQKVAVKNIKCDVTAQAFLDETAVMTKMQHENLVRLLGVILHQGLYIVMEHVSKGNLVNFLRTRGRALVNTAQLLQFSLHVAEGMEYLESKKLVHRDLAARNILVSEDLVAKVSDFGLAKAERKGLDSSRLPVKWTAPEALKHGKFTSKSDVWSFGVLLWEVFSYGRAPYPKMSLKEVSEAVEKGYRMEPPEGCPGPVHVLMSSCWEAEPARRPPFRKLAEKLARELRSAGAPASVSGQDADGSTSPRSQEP
UniProt P55083: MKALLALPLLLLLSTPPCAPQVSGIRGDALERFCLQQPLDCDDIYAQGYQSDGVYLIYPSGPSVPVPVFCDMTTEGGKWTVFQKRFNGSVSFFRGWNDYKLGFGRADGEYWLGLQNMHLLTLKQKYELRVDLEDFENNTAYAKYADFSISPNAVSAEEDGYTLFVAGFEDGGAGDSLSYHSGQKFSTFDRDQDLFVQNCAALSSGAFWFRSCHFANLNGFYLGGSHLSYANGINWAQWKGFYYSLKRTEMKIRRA
UniProt Q8NEM0: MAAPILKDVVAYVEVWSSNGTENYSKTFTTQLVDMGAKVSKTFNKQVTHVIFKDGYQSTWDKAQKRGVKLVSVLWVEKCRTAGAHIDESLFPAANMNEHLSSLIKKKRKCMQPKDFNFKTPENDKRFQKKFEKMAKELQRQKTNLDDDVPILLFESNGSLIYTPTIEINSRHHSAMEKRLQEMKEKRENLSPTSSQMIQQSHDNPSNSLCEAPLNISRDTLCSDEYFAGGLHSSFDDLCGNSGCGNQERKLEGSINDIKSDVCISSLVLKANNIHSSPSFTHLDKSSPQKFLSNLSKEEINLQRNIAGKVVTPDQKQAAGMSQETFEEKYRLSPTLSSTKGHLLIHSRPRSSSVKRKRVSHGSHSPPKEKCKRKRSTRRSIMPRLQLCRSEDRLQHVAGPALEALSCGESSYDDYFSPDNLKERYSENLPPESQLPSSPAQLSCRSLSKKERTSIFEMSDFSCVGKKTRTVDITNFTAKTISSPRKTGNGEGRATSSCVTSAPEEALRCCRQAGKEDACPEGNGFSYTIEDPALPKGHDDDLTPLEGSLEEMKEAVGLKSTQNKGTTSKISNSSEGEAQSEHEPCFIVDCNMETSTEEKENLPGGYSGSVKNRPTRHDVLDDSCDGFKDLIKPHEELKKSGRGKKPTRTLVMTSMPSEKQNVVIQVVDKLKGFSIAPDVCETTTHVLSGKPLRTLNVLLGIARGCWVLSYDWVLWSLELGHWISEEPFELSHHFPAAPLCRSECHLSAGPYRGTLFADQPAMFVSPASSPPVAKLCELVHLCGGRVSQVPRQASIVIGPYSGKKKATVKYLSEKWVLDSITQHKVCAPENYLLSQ
UniProt A6NJ78: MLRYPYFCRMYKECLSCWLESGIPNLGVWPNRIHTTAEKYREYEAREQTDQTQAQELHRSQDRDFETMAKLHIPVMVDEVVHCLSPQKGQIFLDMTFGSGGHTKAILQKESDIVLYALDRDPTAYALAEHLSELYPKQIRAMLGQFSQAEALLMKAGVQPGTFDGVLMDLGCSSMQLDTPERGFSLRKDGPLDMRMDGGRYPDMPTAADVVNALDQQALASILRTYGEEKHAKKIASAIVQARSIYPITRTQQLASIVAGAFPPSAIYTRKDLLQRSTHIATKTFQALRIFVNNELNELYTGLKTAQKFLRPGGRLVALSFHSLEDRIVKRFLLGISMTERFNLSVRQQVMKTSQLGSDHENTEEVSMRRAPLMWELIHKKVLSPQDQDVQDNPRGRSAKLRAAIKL
UniProt Q9Y3C7: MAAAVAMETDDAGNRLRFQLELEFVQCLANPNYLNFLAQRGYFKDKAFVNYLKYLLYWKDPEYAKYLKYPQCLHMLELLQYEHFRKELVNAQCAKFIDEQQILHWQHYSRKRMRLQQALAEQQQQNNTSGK
UniProt Q5U5Q3: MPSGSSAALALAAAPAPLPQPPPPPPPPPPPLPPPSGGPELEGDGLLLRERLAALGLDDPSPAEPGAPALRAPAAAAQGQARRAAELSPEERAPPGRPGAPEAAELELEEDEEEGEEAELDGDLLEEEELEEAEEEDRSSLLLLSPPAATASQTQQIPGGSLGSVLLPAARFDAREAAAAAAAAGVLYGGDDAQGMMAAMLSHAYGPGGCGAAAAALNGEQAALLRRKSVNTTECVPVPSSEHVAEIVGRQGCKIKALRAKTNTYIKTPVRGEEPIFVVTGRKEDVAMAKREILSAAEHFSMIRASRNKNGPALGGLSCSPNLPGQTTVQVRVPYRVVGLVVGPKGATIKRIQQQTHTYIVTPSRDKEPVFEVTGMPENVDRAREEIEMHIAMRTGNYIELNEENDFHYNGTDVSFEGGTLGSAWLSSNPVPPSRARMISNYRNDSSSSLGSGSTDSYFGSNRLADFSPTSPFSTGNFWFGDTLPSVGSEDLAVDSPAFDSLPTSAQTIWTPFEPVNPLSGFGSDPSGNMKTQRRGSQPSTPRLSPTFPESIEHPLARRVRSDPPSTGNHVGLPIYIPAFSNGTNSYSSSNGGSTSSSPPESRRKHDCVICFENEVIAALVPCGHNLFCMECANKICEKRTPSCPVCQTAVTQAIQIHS
UniProt Q8WXB1: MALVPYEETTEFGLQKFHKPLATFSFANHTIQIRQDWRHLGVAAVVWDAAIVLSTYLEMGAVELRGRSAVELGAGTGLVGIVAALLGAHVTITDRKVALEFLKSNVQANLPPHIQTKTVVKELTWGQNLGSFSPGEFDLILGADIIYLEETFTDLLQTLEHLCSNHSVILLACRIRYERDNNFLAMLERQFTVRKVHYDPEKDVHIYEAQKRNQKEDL
UniProt Q9NWA0: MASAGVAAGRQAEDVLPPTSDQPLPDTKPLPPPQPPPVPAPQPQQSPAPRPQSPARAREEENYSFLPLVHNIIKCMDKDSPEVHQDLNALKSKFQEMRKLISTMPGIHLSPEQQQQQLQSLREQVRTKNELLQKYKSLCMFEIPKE
UniProt Q8IX19: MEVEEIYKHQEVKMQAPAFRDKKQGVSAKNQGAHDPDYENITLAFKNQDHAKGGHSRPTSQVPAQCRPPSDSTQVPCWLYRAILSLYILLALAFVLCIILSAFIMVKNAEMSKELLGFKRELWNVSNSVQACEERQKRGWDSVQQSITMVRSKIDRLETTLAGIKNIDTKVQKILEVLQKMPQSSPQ
MCTS2P, A0A3B3IRV3, UniProt A0A3B3IRV3, whole entry, looked up: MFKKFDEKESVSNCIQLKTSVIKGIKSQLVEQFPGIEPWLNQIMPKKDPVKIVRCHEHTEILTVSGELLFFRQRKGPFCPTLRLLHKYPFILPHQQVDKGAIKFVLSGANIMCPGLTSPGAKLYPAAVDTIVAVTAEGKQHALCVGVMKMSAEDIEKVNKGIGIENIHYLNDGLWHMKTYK
UniProt Q9H7H0: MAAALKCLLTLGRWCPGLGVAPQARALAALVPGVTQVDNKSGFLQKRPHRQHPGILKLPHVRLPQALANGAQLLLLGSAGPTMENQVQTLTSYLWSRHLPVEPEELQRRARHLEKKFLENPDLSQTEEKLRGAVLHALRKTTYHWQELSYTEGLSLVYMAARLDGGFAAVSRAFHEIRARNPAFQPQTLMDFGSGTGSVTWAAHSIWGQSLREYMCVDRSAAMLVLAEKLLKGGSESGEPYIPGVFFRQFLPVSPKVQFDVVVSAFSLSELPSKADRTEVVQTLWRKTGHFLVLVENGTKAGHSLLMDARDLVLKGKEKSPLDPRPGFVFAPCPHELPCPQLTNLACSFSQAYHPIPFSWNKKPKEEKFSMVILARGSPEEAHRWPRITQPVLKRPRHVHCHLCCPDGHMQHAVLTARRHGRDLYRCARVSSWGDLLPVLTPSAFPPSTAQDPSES
UniProt Q13503: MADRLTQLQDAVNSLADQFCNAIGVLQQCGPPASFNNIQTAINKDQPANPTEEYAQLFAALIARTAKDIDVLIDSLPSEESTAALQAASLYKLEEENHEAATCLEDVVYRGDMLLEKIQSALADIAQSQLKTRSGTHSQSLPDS
UniProt O00470: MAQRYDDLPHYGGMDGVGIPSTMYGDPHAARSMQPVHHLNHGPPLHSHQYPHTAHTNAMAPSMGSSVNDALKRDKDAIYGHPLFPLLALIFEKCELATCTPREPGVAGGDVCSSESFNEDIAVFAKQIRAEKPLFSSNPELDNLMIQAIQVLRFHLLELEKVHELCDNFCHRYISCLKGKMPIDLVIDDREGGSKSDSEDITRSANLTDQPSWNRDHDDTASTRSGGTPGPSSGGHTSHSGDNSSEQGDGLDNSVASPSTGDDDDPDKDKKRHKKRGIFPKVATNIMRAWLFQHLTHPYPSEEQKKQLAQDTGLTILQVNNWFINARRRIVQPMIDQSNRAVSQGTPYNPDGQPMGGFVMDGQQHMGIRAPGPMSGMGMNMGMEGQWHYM
UniProt Q5TF39: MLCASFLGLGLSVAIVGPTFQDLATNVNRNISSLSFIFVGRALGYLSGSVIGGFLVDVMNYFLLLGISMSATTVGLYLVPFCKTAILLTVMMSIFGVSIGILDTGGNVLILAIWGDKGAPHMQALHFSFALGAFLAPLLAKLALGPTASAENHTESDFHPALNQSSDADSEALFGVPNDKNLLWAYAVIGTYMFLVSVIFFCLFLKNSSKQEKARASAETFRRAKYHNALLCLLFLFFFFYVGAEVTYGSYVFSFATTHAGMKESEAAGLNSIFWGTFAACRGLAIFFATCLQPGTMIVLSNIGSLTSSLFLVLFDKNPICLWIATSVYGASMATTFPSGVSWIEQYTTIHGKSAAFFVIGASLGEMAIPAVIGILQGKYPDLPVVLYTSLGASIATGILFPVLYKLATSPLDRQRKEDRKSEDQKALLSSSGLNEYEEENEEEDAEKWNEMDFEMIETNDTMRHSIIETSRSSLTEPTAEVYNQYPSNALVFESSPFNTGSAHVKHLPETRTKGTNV
UniProt Q8N635: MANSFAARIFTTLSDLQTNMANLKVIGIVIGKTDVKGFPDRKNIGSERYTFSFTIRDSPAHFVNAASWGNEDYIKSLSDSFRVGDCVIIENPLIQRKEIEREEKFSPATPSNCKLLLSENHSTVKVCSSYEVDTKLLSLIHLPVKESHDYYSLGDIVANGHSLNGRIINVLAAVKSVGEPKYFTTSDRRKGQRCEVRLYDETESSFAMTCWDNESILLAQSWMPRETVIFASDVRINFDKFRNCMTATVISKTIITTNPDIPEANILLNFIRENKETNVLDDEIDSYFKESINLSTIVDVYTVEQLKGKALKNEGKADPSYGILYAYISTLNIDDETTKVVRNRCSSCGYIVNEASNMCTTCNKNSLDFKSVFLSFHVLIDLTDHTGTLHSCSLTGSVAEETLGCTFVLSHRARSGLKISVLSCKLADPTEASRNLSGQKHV

barasertib = compound: CCN(CCCOc1ccc2c(Nc3cc(CC(=O)Nc4cccc(F)c4)[nH]n3)ncnc2c1)CCOP(=O)(O)O [barasertib]
Method in brief: as §1

volasertib = compound: CC[C@@H]1C(=O)N(C)c2cnc(Nc3ccc(C(=O)N[C@H]4CC[C@H](N5CCN(CC6CC6)CC5)CC4)cc3OC)nc2N1C(C)C [volasertib]
Method in brief: as §1

[2] = compound: CCn1c(C(=O)N(C2CC2)C2CC2)cc2c3c(ncn3C)c(Nc3cc(C)n(C)n3)nc21
Method in brief: as §1

[3] = compound: CCn1cc(-c2ccnc3[nH]c(-c4cccc(CN(C)C)c4)cc23)c(-c2ccc(NC(=O)N(C)C)cc2)n1
Method in brief: as §1

[4] = compound: CN1CCC(CNc2ccc3ncc(-c4cccc(OC(F)(F)F)c4)n3n2)CC1
Method in brief: as §1

saracatinib = compound: CN1CCN(CCOc2cc(OC3CCOCC3)c3c(Nc4c(Cl)ccc5c4OCO5)ncnc3c2)CC1 [saracatinib]
Method in brief: as §1

sotrastaurin = compound: CN1CCN(c2nc(C3=C(c4c[nH]c5ccccc45)C(=O)NC3=O)c3ccccc3n2)CC1 [sotrastaurin]
Method in brief: as §1

alvocidib = compound: CN1CC[C@H](c2c(O)cc(O)c3c(=O)cc(-c4ccccc4Cl)oc23)[C@H](O)C1 [alvocidib]
Method in brief: as §1

Tubastatin A = compound: CN1CCc2c(c3ccccc3n2Cc2ccc(C(=O)NO)cc2)C1 [Tubastatin A]
Method in brief: as §1

[5] = compound: CNC(=O)C1=CC=CC=C1NC2=NC(=NC=C2Cl)NC3=C(C=C(C=C3)N4CCOCC4)OC
Method in brief: as §1

[6] = compound: CNc1nc(-c2ccc3c(N)n[nH]c3c2)cc(N2C[C@@H](C(=O)NC3CCCCC3)CC[C@H]2C)n1
Method in brief: as §1

alisertib = compound: COc1cc(Nc2ncc3c(n2)-c2ccc(Cl)cc2C(c2c(F)cccc2OC)=NC3)ccc1C(=O)O [alisertib]
Method in brief: as §1

[7] = compound: COc1cc2nc(-c3cc(F)ccc3O)nc(N[C@@H]3CNC[C@H]3C(C)(C)O)c2cc1OC
Method in brief: as §1

gefitinib = compound: COc1cc2ncnc(Nc3ccc(F)c(Cl)c3)c2cc1OCCCN1CCOCC1 [gefitinib]
Method in brief: as §1

[8] = compound: CC[C@@H]1C(=O)N(C)c2cnc(Nc3ccc(C(=O)NC4CCN(C)CC4)cc3OC)nc2N1C1CCCC1
Method in brief: as §1

encorafenib = compound: COC(=O)N[C@@H](C)CNc1nccc(-c2cn(C(C)C)nc2-c2cc(Cl)cc(NS(C)(=O)=O)c2F)n1 [encorafenib]
Method in brief: as §1

[9] = compound: COC(=O)[C@H](CCSC)NC(=O)C1=C(C=C(C=C1)NC[C@H](CS)N)C2=CC=CC=C2
Method in brief: as §1

vemurafenib = compound: CCCS(=O)(=O)Nc1ccc(F)c(C(=O)c2c[nH]c3ncc(-c4ccc(Cl)cc4)cc23)c1F [vemurafenib]
Method in brief: as §1

defactinib = compound: CNC(=O)c1ccc(Nc2ncc(C(F)(F)F)c(NCc3nccnc3N(C)S(C)(=O)=O)n2)cc1 [defactinib]
Method in brief: as §1

Measured: log2 fold change

MCUB (UniProt Q9NWR8)
inactive: [1] -0.175 | barasertib 0.156 | volasertib -0.041 | [2] -0.222 | [3] 0 | [4] -0.054 | saracatinib -0.096 | sotrastaurin -0.008 | alvocidib 0.019 | Tubastatin A 0.105 | [5] -0.032 | [6] -0.074 | alisertib 0.121 | [7] -0.062 | gefitinib -0.046

MED29 (UniProt Q9NX70)
inactive: [2] -0.018 | [3] 0.144 | [4] -0.083 | saracatinib 0.145 | sotrastaurin -0.011 | alvocidib 0.038 | Tubastatin A 0.15 | [5] 0.091 | [6] -0.067

METAP2 isoform 2 (UniProt P50579)
inactive: [8] -0.04 | [2] 0.079 | [3] -0.101 | [4] 0.191 | alvocidib -0.019 | Tubastatin A 0.179 | encorafenib 0.024 | [9] -0.032 | alisertib 0.066 | gefitinib 0.057

MEX3A (UniProt A1L020)
inactive: vemurafenib -0.094 | [2] 0.191 | saracatinib 0.055 | Tubastatin A 0.037 | defactinib -0.068 | [6] 0.037 | alisertib -0.097 | gefitinib 0.207

MCFD2 isoform 2 (UniProt Q8NI22)
inactive: [1] -0.008 | volasertib 0.154 | [7] -0.066

METTL7B (UniProt Q6UX53)
inactive: [5] 0.291

MATK isoform 2 (UniProt P42679)
inactive: [1] -0.036 | volasertib -0.047 | [2] 0.201 | [3] -0.137 | [4] 0.078 | alvocidib -0.099 | Tubastatin A 0.018 | alisertib 0.029 | [7] 0.004 | gefitinib 0.023

MFSD11 (UniProt O43934)
inactive: [1] 0.064 | barasertib -0.016 | volasertib -0.033 | [2] -0.051 | [3] -0.095 | [4] 0.084 | alvocidib -0.059 | Tubastatin A -0.036 | [5] 0.016 | [7] 0.094

MBD6 (UniProt Q96DN6)
inactive: saracatinib 0.281 | [6] 0.044

MFAP4 isoform 2 (UniProt P55083)
inactive: [8] -0.021 | encorafenib -0.015 | [9] 0.19

MCPH1 (UniProt Q8NEM0)
inactive: [3] 0.125 | [4] 0.006 | sotrastaurin -0.193 | alvocidib 0.214

METTL15 (UniProt A6NJ78)
inactive: vemurafenib 0.093 | [2] -0.107 | sotrastaurin 0.066 | Tubastatin A -0.002 | defactinib 0.102 | alisertib 0.233 | gefitinib -0.14

MED31 (UniProt Q9Y3C7)
inactive: [1] -0.016 | barasertib 0.068 | volasertib 0.057 | [2] 0.056 | [3] -0.068 | [4] -0.06 | saracatinib 0.06 | sotrastaurin -0.029 | alvocidib -0.08 | Tubastatin A -0.056 | [5] 0.088 | [6] 0.068 | alisertib 0.029 | [7] 0.025 | gefitinib -0.031

METTL5 (UniProt H0YFV5)
inactive: [1] 0.015 | barasertib 0.005 | volasertib -0.015 | sotrastaurin -0.026 | [5] 0.088 | [7] 0.086

Quoted from above (2 entries):
METTL15 (UniProt A6NJ78)
inactive: vemurafenib 0.093 | [2] -0.107 | sotrastaurin 0.066 | Tubastatin A -0.002 | defactinib 0.102 | alisertib 0.233 | gefitinib -0.14

MED31 (UniProt Q9Y3C7)
inactive: [1] -0.016 | barasertib 0.068 | volasertib 0.057 | [2] 0.056 | [3] -0.068 | [4] -0.06 | saracatinib 0.06 | sotrastaurin -0.029 | alvocidib -0.08 | Tubastatin A -0.056 | [5] 0.088 | [6] 0.068 | alisertib 0.029 | [7] 0.025 | gefitinib -0.031

Following part

MEX3C (UniProt Q5U5Q3)
inactive: sotrastaurin -0.024 | [5] 0.01 | alisertib 0.07 | gefitinib 0.284

MFSD9 (UniProt Q8NBP5)
inactive: saracatinib 0.042 | [6] 0.056

METTL21A (UniProt Q8WXB1)
active: saracatinib 0.263
inactive: [1] 0.04 | barasertib 0.062 | volasertib -0.034 | [2] -0.054 | [3] -0.011 | [4] 0.049 | sotrastaurin 0.04 | alvocidib 0.009 | Tubastatin A 0.052 | [5] 0.087 | [6] 0 | alisertib 0.004 | [7] 0.011 | gefitinib -0.028

MED9 (UniProt Q9NWA0)
inactive: [1] 0.088 | volasertib 0.073 | [2] 0.009 | [3] 0.059 | [4] -0.094 | saracatinib 0.068 | sotrastaurin -0.117 | alvocidib 0.125 | Tubastatin A 0.042 | [6] 0.087 | alisertib 0.122 | [7] -0.023 | gefitinib -0.15

MCEMP1 (UniProt Q8IX19)
inactive: [1] -0.145 | volasertib 0.007 | saracatinib -0.042 | sotrastaurin -0.049 | [6] -0.016 | [7] -0.12

MCTS2P, A0A3B3IRV3
inactive: [1] -0.077 | volasertib -0.049 | [2] 0.024 | saracatinib 0.096 | sotrastaurin -0.133 | Tubastatin A 0.063 | [5] -0.044 | [6] 0.004 | [7] 0.015

METTL17 isoform 3 (UniProt Q9H7H0)
inactive: [8] 0.093 | [3] -0.027 | [4] 0.133 | alvocidib 0.15 | encorafenib -0.041 | [9] -0.108 | alisertib 0.106 | gefitinib 0.214

MBTD1 (UniProt Q05BQ5)
inactive: [2] 0.085 | sotrastaurin 0.059 | Tubastatin A 0.044

MBTPS2 (UniProt O43462)
inactive: [8] -0.268 | sotrastaurin -0.111 | encorafenib 0.144 | [9] -0.007

MED21 (UniProt Q13503)
inactive: [1] 0.133 | barasertib 0.063 | [8] 0.225 | volasertib 0.096 | [2] 0.035 | [3] 0.013 | [4] -0.022 | saracatinib 0.034 | sotrastaurin 0.029 | alvocidib 0.111 | Tubastatin A 0.079 | [5] 0.087 | [6] 0.076 | encorafenib 0.057 | [9] -0.106 | alisertib 0.03 | [7] -0.222 | gefitinib -0.221

MEIS1 (UniProt O00470)
inactive: barasertib 0.054 | [8] 0.272 | [3] 0.115 | [4] -0.031 | sotrastaurin -0.008 | alvocidib -0.117 | encorafenib 0 | [9] 0.029

MDK (UniProt P21741)
inactive: [1] 0.012 | [8] 0.194 | volasertib -0.114 | [2] -0.043 | [3] 0.333 | [4] -0.224 | saracatinib 0.033 | sotrastaurin 0.035 | alvocidib 0.157 | Tubastatin A -0.026 | [5] 0.045 | [6] -0.034 | encorafenib -0.057 | [9] 0.04 | alisertib -0.033 | [7] -0.016 | gefitinib 0.031

MFSD4B (UniProt Q5TF39)
inactive: [1] -0.011 | barasertib -0.079 | [8] 0.059 | volasertib -0.01 | [2] -0.049 | [3] -0.013 | [4] 0.199 | saracatinib 0.15 | sotrastaurin 0.152 | alvocidib -0.043 | Tubastatin A 0.137 | [5] 0.033 | [6] -0.096 | encorafenib -0.232 | [9] 0.081 | alisertib -0.059 | [7] 0.012 | gefitinib 0.103

MEIOB isoform 2 (UniProt Q8N635)
inactive: [3] -0.048 | [4] -0.181 | saracatinib -0.019 | alvocidib 0.115 | [6] 0.148 | alisertib 0.007 | gefitinib 0.095

MEX3B (UniProt Q6ZN04)
inactive: [1] -0.004 | barasertib -0.078 | [8] 0.24 | volasertib 0.281 | [2] -0.04 | [3] -0.167 | [4] -0.011 | saracatinib 0.024 | alvocidib -0.026 | Tubastatin A 0.09 | [5] 0.064 | [6] 0 | encorafenib -0.176 | [9] 0.056 | alisertib 0.083 | [7] -0.076 | gefitinib -0.038

MED28 (UniProt Q9H204)
inactive: [1] -0.004 | volasertib 0.096 | [2] 0.053 | [3] -0.063 | [4] 0.322 | saracatinib -0.032 | sotrastaurin -0.028 | alvocidib -0.292 | Tubastatin A 0.05 | [5] 0.14 | [6] 0.081 | alisertib 0.011 | [7] -0.024 | gefitinib -0.217
